Experimental data from PMC5719394.
Results are given in words; binding and its absence hold for the method and conditions named. Binding seen in cells or lysates may run through a third protein. Some binding calls cover weakened binding; strength is not graded here. Tags and fused reporters may be left off the sequences shown.

Biological target: T1, Flag-tagged NLRP11 (FL) (human) (UniProt P59045)
T1 sequence: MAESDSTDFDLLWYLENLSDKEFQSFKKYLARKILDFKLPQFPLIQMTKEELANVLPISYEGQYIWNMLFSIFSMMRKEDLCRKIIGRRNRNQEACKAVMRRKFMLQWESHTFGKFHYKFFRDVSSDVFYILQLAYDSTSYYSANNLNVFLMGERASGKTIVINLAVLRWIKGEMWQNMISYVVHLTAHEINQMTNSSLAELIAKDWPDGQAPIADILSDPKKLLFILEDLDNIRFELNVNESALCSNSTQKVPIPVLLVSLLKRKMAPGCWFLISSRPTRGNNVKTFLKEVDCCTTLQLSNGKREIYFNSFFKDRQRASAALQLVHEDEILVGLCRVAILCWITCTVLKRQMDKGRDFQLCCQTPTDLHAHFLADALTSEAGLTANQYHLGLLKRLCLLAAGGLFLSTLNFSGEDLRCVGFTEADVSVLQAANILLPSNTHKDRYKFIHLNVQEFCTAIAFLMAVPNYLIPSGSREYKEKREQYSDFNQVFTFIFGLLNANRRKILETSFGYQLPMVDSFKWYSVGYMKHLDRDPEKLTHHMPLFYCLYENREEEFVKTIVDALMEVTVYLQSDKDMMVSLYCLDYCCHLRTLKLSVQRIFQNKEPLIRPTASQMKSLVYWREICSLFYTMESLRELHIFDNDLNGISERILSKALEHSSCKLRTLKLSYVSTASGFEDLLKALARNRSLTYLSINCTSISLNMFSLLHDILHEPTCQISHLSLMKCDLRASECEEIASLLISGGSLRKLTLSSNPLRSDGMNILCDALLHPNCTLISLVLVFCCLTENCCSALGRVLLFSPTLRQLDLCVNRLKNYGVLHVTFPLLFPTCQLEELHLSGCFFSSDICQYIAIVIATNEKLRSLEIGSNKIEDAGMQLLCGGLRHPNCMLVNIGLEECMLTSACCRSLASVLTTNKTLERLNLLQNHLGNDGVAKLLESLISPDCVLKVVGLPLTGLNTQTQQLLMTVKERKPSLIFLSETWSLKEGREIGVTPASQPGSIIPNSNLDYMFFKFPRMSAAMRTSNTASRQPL
Experiment: co-IP; 293T cells co-transfected with tagged proteins; lysates in low-salt buffer; anti-Flag or anti-HA beads, 4 °C overnight, five washes; immunoblot

binding: binds
B1: GFP-RNF19A (enzyme, UniProt Q9NV58 1-838)
chain: MQEQEIGFISKYNEGLCVNTDPVSILTSILDMSLHRQMGSDRDLQSSASSVSLPSVKKAPKKRRISIGSLFRRKKDNKRKSRELNGGVDGIASIESIHSEMCTDKNSIFSTNTSSDNGLTSISKQIGDFIECPLCLLRHSKDRFPDIMTCHHRSCVDCLRQYLRIEISESRVNISCPECTERFNPHDIRLILSDDVLMEKYEEFMLRRWLVADPDCRWCPAPDCGYAVIAFGCASCPKLTCGREGCGTEFCYHCKQIWHPNQTCDAARQERAQSLRLRTIRSSSISYSQESGAAADDIKPCPRCAAYIIKMNDGSCNHMTCAVCGCEFCWLCMKEISDLHYLSPSGCTFWGKKPWSRKKKILWQLGTLVGAPVGIALIAGIAIPAMIIGIPVYVGRKIHNRYEGKDVSKHKRNLAIAGGVTLSVIVSPVVAAVTVGIGVPIMLAYVYGVVPISLCRSGGCGVSAGNGKGVRIEFDDENDINVGGTNTAVDTTSVAEARHNPSIGEGSVGGLTGSLSASGSHMDRIGAIRDNLSETASTMALAGASITGSLSGSAMVNCFNRLEVQADVQKERYSLSGESGTVSLGTVSDNASTKAMAGSILNSYIPLDKEGNSMEVQVDIESKPSKFRHNSGSSSVDDGSATRSHAGGSSSGLPEGKSSATKWSKEATAGKKSKSGKLRKKGNMKINETREDMDAQLLEQQSTNSSEFEAPSLSDSMPSVADSHSSHFSEFSCSDLESMKTSCSHGSSDYHTRFATVNILPEVENDRLENSPHQCSISVVTQTASCSEVSQLNHIAEEHGNNGIKPNVDLYFGDALKETNNNHSHQTMELKVAIQTEI
